No constants are given. Whether binding was seen depends on the method and setting. In cells and extracts the contact can be indirect. These calls come from enrichment with a bait or labelling near it, and not all partners need be listed.
Target: RAB11A (human (endogenous in SH-SY5Y)) (UniProt P62491)
Assay: affinity purification with mass spectrometry; Co-IP with anti-RAB11A from lysates of EV-A71 S41-infected (MOI 0.1, 24 h.p.i.) and uninfected SH-SY5Y cells; elution in Laemmli buffer at 70 °C; SDS-PAGE, in-gel trypsin digestion, LC-MS/MS (Q Exactive), Mascot; IgG isotype control subtracted

Chains of the proteins cited; added tags and fusions are not shown.
UniProt P62491: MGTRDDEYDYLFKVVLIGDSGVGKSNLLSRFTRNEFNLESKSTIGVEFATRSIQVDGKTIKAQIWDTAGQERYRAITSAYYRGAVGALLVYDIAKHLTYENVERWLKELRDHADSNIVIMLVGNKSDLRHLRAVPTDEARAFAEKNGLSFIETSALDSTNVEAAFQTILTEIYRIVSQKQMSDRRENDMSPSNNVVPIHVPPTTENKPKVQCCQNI
UniProt P11142: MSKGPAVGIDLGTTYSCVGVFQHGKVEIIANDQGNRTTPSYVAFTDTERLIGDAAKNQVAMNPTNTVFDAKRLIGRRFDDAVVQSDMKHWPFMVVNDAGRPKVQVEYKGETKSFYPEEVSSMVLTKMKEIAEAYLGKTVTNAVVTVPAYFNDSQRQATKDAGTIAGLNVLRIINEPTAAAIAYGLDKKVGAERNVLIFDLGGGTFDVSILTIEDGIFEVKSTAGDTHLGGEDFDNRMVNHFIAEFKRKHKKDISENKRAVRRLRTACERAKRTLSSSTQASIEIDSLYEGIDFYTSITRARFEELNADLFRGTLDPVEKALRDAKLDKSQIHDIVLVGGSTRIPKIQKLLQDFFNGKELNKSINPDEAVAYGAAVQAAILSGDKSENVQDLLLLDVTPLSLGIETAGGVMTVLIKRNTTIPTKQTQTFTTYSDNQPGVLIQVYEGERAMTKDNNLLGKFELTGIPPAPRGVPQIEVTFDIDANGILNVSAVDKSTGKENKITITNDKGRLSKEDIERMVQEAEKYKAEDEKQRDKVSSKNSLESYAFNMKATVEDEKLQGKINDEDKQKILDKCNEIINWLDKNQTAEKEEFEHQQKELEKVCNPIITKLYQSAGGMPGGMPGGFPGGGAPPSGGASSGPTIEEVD
UniProt P54652: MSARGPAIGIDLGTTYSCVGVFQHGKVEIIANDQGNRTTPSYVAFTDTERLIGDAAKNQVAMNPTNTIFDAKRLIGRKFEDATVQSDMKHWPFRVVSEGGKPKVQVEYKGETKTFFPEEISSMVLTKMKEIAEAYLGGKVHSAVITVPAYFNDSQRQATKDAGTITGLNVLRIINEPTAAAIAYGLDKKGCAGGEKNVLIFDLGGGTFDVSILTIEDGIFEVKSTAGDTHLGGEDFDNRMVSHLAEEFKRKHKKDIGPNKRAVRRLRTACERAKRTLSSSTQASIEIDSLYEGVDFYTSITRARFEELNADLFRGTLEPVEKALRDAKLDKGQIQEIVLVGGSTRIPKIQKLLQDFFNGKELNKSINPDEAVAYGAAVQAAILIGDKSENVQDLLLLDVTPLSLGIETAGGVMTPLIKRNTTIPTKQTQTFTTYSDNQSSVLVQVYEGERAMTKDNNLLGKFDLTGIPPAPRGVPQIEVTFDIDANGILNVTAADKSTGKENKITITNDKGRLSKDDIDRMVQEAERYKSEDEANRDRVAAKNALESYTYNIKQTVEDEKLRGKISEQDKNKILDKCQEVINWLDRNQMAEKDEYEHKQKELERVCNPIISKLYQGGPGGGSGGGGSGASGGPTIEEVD

| binding | Molecule |
| --- | --- |
| binds | HSPA8 (from UniProt P11142 1-646) |
| binds | HSPA2 (from UniProt P54652 1-639) |
| binds | TRAP1 (protein, UniProt Q12931 60-704) STQTAEDKEEPLHSIISSTESVQGSTSKHEFQAETKKLLDIVARSLYSEKEVFIRELISNASDALEKLRHKLVSDGQALPEMEIHLQTNAEKGTITIQDTGIGMTQEELVSNLGTIARSGSKAFLDALQNQAEASSKIIGQFGVGFYSAFMVADRVEVYSRSAAPGSLGYQWLSDGSGVFEIAEASGVRTGTKIIIHLKSDCKEFSSEARVRDVVTKYSNFVSFPLYLNGRRMNTLQAIWMMDPKDVREWQHEEFYRYVAQAHDKPRYTLHYKTDAPLNIRSIFYVPDMKPSMFDVSRELGSSVALYSRKVLIQTKATDILPKWLRFIRGVVDSEDIPLNLSRELLQESALIRKLRDVLQQRLIKFFIDQSKKDAEKYAKFFEDYGLFMREGIVTATEQEVKEDIAKLLRYESSALPSGQLTSLSEYASRMRAGTRNIYYLCAPNRHLAEHSPYYEAMKKKDTEVLFCFEQFDELTLLHLREFDKKKLISVETDIVVDHYKEEKFEDRSPAAECLSEKETEELMAWMRNVLGSRVTNVKVTLRLDTHPAMVTVLEMGAARHFLRMQQLAKTQEERAQLLQPTLEINPRHALIKKLNQLRASEPGLAQLLVDQIYENAMIAAGLVDDPRAMVGRLNELLVKALERH |

Reference: article PMC11212238
